Some entries share one result that the patent states for a list of compounds. For at least one compound, name, drawing or mass did not settle the structure.
Tested on: PSCs
Assay: OLIG2 expression at day 12 of PSC differentiation with dual SMAD inhibition
Assay type: cell-based, human
Settings: SB431542 and LDN193189 combined (dual SMAD inhibition) with RA and SHH signaling

SMILES | Cells expressing OLIG2 at day 12
c1ccc2c(-c3cnn4cc(-c5ccc(N6CCNCC6)cc5)cnc34)ccnc2c1 [LDN193189] | more than 70%
NC(=O)c1ccc(-c2nc(-c3ccc4c(c3)OCO4)c(-c3ccccn3)[nH]2)cc1 [SB431542] | more than 70%

— patent publication US11814648B2, “Functional oligodendrocytes derived from pluripotent stem cells and methods of making and using the same” (New York Stem Cell Foundation, Inc., priority 2014, dated 2023)
